# Experimental data: PubChem BioAssay AID1508588 (Peter MacCallum Cancer Centre, 2020)
# Aim: 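Which gene losses make BRAF-mutant melanoma cells more responsive to vemurafenib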 (primary screen)
# Cells: human WM266.4 melanoma cells (BRAF V600 mutant)
# Reagents: siRNA pool against human genes, 40 nM
# Timing: 96 h from transfection to read-out
# Challenge: vemurafenib 300 nM (about IC25), added 48 h after transfection, for 48 h; comparison arm got DMSO vehicle only
# Read-out: 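Ratios to non-targeting siRNA for cell gain, counted as DAPI nuclei after minus before drug and averaged over two replicates, and for absorbance-read medium lactate per cell; both binned into fold-change classes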
# Direction: cell gain with vemurafenib: higher = more cell gain than with non-targeting siRNA; lactate per cell with vemurafenib: higher = more lactate made per cell
# Call rule: 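a knock-down counts as enhancing when its fold-change classes with vehicle and with vemurafenib, taken together, show a stronger drug effect on cell gain or lactate per cell; exact class pairs not stated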
# Meaning of the calls: active = enhances vemurafenib effect; inactive = no enhancement seen
# Here is an unselected part of about 18,000 reagents tested. 790 of them (4.4%) were called active. 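Calls rest on a combination of fold-change classes in drug and vehicle arms, not all shown here.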
Target gene,cell gain with vemurafenib,lactate per cell with vemurafenib,call
GNL3 (G protein nucleolar 3),0.35,0.9,inactive
TIGD6 (tigger transposable element derived 6),0.8,1.43,inactive
OR52M1 (olfactory receptor family 52 subfamily M member 1),0.48,1.34,inactive
MYO16 (myosin XVI),0.52,1.92,inactive
SYNM (synemin),0.58,0.9,inactive
OR8G1 (olfactory receptor family 8 subfamily G member 1),0.04,1.42,inactive
SETMAR (SET and mariner transposase domain methyltransferase),0.81,0.76,inactive
CDC42SE1 (CDC42 small effector 1),0.76,0.77,inactive
DHRS1 (dehydrogenase/reductase 1),0.18,3.01,inactive
SEM1 (SEM1 26S proteasome subunit),0.39,1.16,inactive
ACBD4 (acyl-CoA binding domain containing 4),0.88,0.76,inactive
CST11 (cystatin 11),0.91,0.82,inactive
GLOD5 (glyoxalase domain containing 5),0.72,1.1,inactive
IFT54 (intraflagellar transport 54),0.2,0.22,inactive
PLA2G12A (phospholipase A2 group XIIA),0.69,0.6,inactive
TMC2 (transmembrane channel like 2),0.26,1.1,inactive
C1orf52 (chromosome 1 open reading frame 52),1.13,0.74,inactive
TSPAN9 (tetraspanin 9),0.84,1.08,inactive
DSCAM (DS cell adhesion molecule),0.44,1.27,inactive
TRRAP (transformation/transcription domain associated protein),-0.1,0.78,inactive
HLTF (helicase like transcription factor),0.37,1.36,inactive
INSL5 (insulin like 5),1.55,0.34,inactive
"NAA16 (N-alpha-acetyltransferase 16, NatA auxiliary subunit)",0.92,1.04,inactive
CNNM1,0.73,1.09,inactive
CEP126 (centrosomal protein 126),0.86,0.84,inactive
ANGPTL5 (angiopoietin like 5),0.42,0.68,active
DPY30 (dpy-30 histone methyltransferase complex regulatory subunit),0.81,1.34,inactive
KCNH5 (potassium voltage-gated channel subfamily H member 5),0.53,1.72,inactive
RGS13 (regulator of G protein signaling 13),0.59,0.38,inactive
VPS51 (VPS51 subunit of GARP complex),0.78,0.57,inactive
ZNF214 (zinc finger protein 214),0.89,0.97,inactive
BDH2 (3-hydroxybutyrate dehydrogenase 2),0.87,0.67,inactive
SLC24A4,0.58,1.54,inactive
INTS14 (integrator complex subunit 14),0.97,0.46,inactive
XRCC4 (X-ray repair cross complementing 4),0.88,0.73,inactive
TMEM161A (transmembrane protein 161A),1.04,0.7,inactive
MAD2L1 (mitotic arrest deficient 2 like 1),0.39,1.04,inactive
BCAS1 (brain enriched myelin associated protein 1),0.48,1.39,inactive
UBTD2 (ubiquitin domain containing 2),0.36,1.13,inactive
TENM3 (teneurin transmembrane protein 3),0.94,0.96,inactive
SLC10A1,0.66,0.56,inactive
PHF21A (PHD finger protein 21A),1.04,0.76,inactive
CADM2 (cell adhesion molecule 2),0.29,1.52,inactive
NEDD8 (NEDD8 ubiquitin like modifier),0.59,1.55,inactive
OR10Q1 (olfactory receptor family 10 subfamily Q member 1),0.3,1.26,inactive
APOLD1 (apolipoprotein L domain containing 1),0.72,1.43,inactive
RAD1 (RAD1 checkpoint DNA exonuclease),0.68,0.46,inactive
NOC4L (nucleolar complex associated 4 homolog),0.7,0.62,inactive
TMEM130 (transmembrane protein 130),0.84,0.61,inactive
ZNF154 (zinc finger protein 154),0.58,0.56,inactive
RALGDS (ral guanine nucleotide dissociation stimulator),0.47,0.77,inactive
"SUPT4H1 (SPT4 homolog, DSIF elongation factor subunit)",0.4,1.08,inactive
LMOD1 (leiomodin 1),0.58,1.77,inactive
CTSC (cathepsin C),0.31,0.94,inactive
IL17RD (interleukin 17 receptor D),0.13,0.04,active
TTC13 (tetratricopeptide repeat domain 13),0.28,1.84,inactive
TNFRSF4 (TNF receptor superfamily member 4),0.75,0.97,inactive
ARK2N (arkadia (RNF111) N-terminal like PKA signaling regulator 2N),0.35,0.66,inactive
GAMT (guanidinoacetate N-methyltransferase),1.4,0.55,inactive
OR1A1 (olfactory receptor family 1 subfamily A member 1),0.67,0.78,inactive
SMPD2 (sphingomyelin phosphodiesterase 2),0.68,0.6,inactive
FSTL3 (follistatin like 3),-0.03,3.73,inactive
MBNL1 (muscleblind like splicing regulator 1),0.42,1.06,inactive
CALM2 (calmodulin 2),0.13,0.76,inactive
EPS8L1 (EPS8 signaling adaptor L1),0.42,0.86,inactive
HCFC2 (host cell factor C2),0.93,1.05,inactive
TTC5 (tetratricopeptide repeat domain 5),0.39,2.06,inactive
IKZF3 (IKAROS family zinc finger 3),0.94,0.55,inactive
ATG4B (autophagy related 4B cysteine peptidase),0.55,0.46,inactive
TUBGCP6 (tubulin gamma complex component 6),0.46,1.32,inactive
RCN1 (reticulocalbin 1),0.9,0.43,inactive
NKX3-1 (NK3 homeobox 1),0.66,1.38,inactive
ERGIC3 (ERGIC and golgi 3),0.29,1.16,inactive
UBE2D4 (ubiquitin conjugating enzyme E2 D4),0.94,0.98,inactive
ENPP4 (ectonucleotide pyrophosphatase/phosphodiesterase 4),0.57,1.12,inactive
C2CD4A (C2 calcium dependent domain containing 4A),0.23,1.16,inactive
NRN1L (neuritin 1 like),0.49,1.21,inactive
OR10G8 (olfactory receptor family 10 subfamily G member 8),0.22,1.02,inactive
RELL2 (RELT like 2),0.59,0.96,inactive
CETN3 (centrin 3),0.26,0.72,inactive
"PSMC3 (proteasome 26S subunit, ATPase 3)",-0.18,3.47,inactive
CDT1 (chromatin licensing and DNA replication factor 1),0.67,0.98,inactive
ZSCAN5A (zinc finger and SCAN domain containing 5A),0.62,0.91,inactive
RRP7A (ribosomal RNA processing 7 homolog A),0.64,1.07,inactive

Records above whose gene name begins with A or a (5):
Target gene,cell gain with vemurafenib,lactate per cell with vemurafenib,call
ACBD4 (acyl-CoA binding domain containing 4),0.88,0.76,inactive
ANGPTL5 (angiopoietin like 5),0.42,0.68,active
APOLD1 (apolipoprotein L domain containing 1),0.72,1.43,inactive
ARK2N (arkadia (RNF111) N-terminal like PKA signaling regulator 2N),0.35,0.66,inactive
ATG4B (autophagy related 4B cysteine peptidase),0.55,0.46,inactive
